Test results: US20230109275A1 (AUTOLUS, published 2023)
No constants are given. Whether binding was seen depends on the method and setting. Some entries that bind do so weakly or less than the wild type.

Sequences of proteins named here, by UniProt entry; tags and fusion partners are left off. Residues count along the entry.
UniProt P01850, residues 1-129: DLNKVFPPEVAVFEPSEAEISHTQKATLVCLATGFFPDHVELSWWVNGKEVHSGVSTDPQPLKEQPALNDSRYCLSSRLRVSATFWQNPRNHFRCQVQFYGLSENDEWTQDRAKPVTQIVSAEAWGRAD

The binders below were run against TRBC1 (T cell receptor beta-chain constant domain 1), interaction partner protein injected in SPR (human) (UniProt P01850) (assay: SPR (Biacore T200), antibody captured on anti-human IgG chip, TRBC injected; target TRBC1 per paragraph 372 and Table 1, not printed on the sheet [Continued]).

Binder	binding
Mut13 (antibody, V domains shown, Variant of hJOVI-1; captured by anti-human IgG in SPR; also called VH T28K, Y32F, A100N; VL N35K) VH: QVQLVQSGAEVKKPGASVKVSCKASGYKFTGFVMHWVRQAPGQGLEWMGFINPYNDDIQSNERFRGRVTMTRDTSISTAYMELSRLRSDDTAVYYCARGNGYNFDGAYRFFDFWGQGTMVTVSS VL: DIVMTQSPLSLPVTPGEPASISCRSSQRLVHSNGKTYLHWYLQKPGQSPRLLIYRVSNRFPGVPDRFSGSGSGTDFTLKISRVEAEDVGVYYCSQSTHVPYTFGQGTKLEIK	binds
Mut14 (antibody, V domains shown, Variant of hJOVI-1; IgG format; also called VH T28K, Y32F, A100N, A107S) VH: QVQLVQSGAEVKKPGASVKVSCKASGYKFTGFVMHWVRQAPGQGLEWMGFINPYNDDIQSNERFRGRVTMTRDTSISTAYMELSRLRSDDTAVYYCARGNGYNFDGSYRFFDFWGQGTMVTVSS VL: DIVMTQSPLSLPVTPGEPASISCRSSQRLVHSNGNTYLHWYLQKPGQSPRLLIYRVSNRFPGVPDRFSGSGSGTDFTLKISRVEAEDVGVYYCSQSTHVPYTFGQGTKLEIK	binds
Mut11 (antibody, V domains shown, Variant of hJOVI-1; IgG format; also called VH G106A; anti-TRBC1 antibody Mut11) VH: QVQLVQSGAEVKKPGASVKVSCKASGYTFTGYVMHWVRQAPGQGLEWMGFINPYNDDIQSNERFRGRVTMTRDTSISTAYMELSRLRSDDTAVYYCARGAGYNFDAAYRFFDFWGQGTMVTVSS VL: DIVMTQSPLSLPVTPGEPASISCRSSQRLVHSNGNTYLHWYLQKPGQSPRLLIYRVSNRFPGVPDRFSGSGSGTDFTLKISRVEAEDVGVYYCSQSTHVPYTFGQGTKLEIK	binds

Further lines, results first:

binding	Binder
binds	Mut12 (antibody, V domains shown, Variant of hJOVI-1; captured by anti-human IgG in SPR; also called VH T28K, Y32F, A100N, N103L; VL N35K) VH: QVQLVQSGAEVKKPGASVKVSCKASGYKFTGFVMHWVRQAPGQGLEWMGFINPYNDDIQSNERFRGRVTMTRDTSISTAYMELSRLRSDDTAVYYCARGNGYLFDGAYRFFDFWGQGTMVTVSS VL: DIVMTQSPLSLPVTPGEPASISCRSSQRLVHSNGKTYLHWYLQKPGQSPRLLIYRVSNRFPGVPDRFSGSGSGTDFTLKISRVEAEDVGVYYCSQSTHVPYTFGQGTKLEIK
binds	Mut8 (antibody, V domains shown, Variant of hJOVI-1; captured by anti-human IgG in SPR; also called VH G31S) VH: QVQLVQSGAEVKKPGASVKVSCKASGYTFTSYVMHWVRQAPGQGLEWMGFINPYNDDIQSNERFRGRVTMTRDTSISTAYMELSRLRSDDTAVYYCARGAGYNFDGAYRFFDFWGQGTMVTVSS VL: DIVMTQSPLSLPVTPGEPASISCRSSQRLVHSNGNTYLHWYLQKPGQSPRLLIYRVSNRFPGVPDRFSGSGSGTDFTLKISRVEAEDVGVYYCSQSTHVPYTFGQGTKLEIK
binds	Mut10 (antibody, V domains shown, Variant of hJOVI-1; captured by anti-human IgG in SPR; also called VH Y102M) VH: QVQLVQSGAEVKKPGASVKVSCKASGYTFTGYVMHWVRQAPGQGLEWMGFINPYNDDIQSNERFRGRVTMTRDTSISTAYMELSRLRSDDTAVYYCARGAGMNFDGAYRFFDFWGQGTMVTVSS VL: DIVMTQSPLSLPVTPGEPASISCRSSQRLVHSNGNTYLHWYLQKPGQSPRLLIYRVSNRFPGVPDRFSGSGSGTDFTLKISRVEAEDVGVYYCSQSTHVPYTFGQGTKLEIK

What follows are binders tested against TRBC1 (T cell receptor beta-chain constant domain 1), interaction partner protein injected in SPR (human) (UniProt P01850) (assay: SPR, plot of kon against koff headed TRBC1; '868' is not explained in the filing).

binding	Binder
binds	hJOVI-1 (humanised JOVI-1 antibody, reference antibody) (antibody, V domains shown, Tested in IgG format and captured by anti-human IgG in SPR; also called aTRBC1; anti-TRBC1 antibody hJOVI-1) VH: QVQLVQSGAEVKKPGASVKVSCKASGYTFTGYVMHWVRQAPGQGLEWMGFINPYNDDIQSNERFRGRVTMTRDTSISTAYMELSRLRSDDTAVYYCARGAGYNFDGAYRFFDFWGQGTMVTVSS VL: DIVMTQSPLSLPVTPGEPASISCRSSQRLVHSNGNTYLHWYLQKPGQSPRLLIYRVSNRFPGVPDRFSGSGSGTDFTLKISRVEAEDVGVYYCSQSTHVPYTFGQGTKLEIK

The binders below were run against TRBC1 (T cell receptor beta-chain constant domain 1), interaction partner protein injected in SPR (human) (UniProt P01850) (assay: SPR (Biacore T200), antibody captured on anti-human IgG chip, TRBC injected; target TRBC1 per paragraph 372 and Table 1, not printed on the sheet).

binding	Binder
binds	hJOVI-1 (humanised JOVI-1 antibody, reference antibody) (antibody, V domains shown, Tested in IgG format and captured by anti-human IgG in SPR; also called aTRBC1; anti-TRBC1 antibody hJOVI-1) VH: QVQLVQSGAEVKKPGASVKVSCKASGYTFTGYVMHWVRQAPGQGLEWMGFINPYNDDIQSNERFRGRVTMTRDTSISTAYMELSRLRSDDTAVYYCARGAGYNFDGAYRFFDFWGQGTMVTVSS VL: DIVMTQSPLSLPVTPGEPASISCRSSQRLVHSNGNTYLHWYLQKPGQSPRLLIYRVSNRFPGVPDRFSGSGSGTDFTLKISRVEAEDVGVYYCSQSTHVPYTFGQGTKLEIK
binds	Mut9 (antibody, V domains shown, Variant of hJOVI-1; captured by anti-human IgG in SPR; also called VH G26P, T28K) VH: QVQLVQSGAEVKKPGASVKVSCKASPYKFTGYVMHWVRQAPGQGLEWMGFINPYNDDIQSNERFRGRVTMTRDTSISTAYMELSRLRSDDTAVYYCARGAGYNFDGAYRFFDFWGQGTMVTVSS VL: DIVMTQSPLSLPVTPGEPASISCRSSQRLVHSNGNTYLHWYLQKPGQSPRLLIYRVSNRFPGVPDRFSGSGSGTDFTLKISRVEAEDVGVYYCSQSTHVPYTFGQGTKLEIK
